Patent US9096624B2 (OSI Pharmaceuticals, LLC, priority 2009, dated 2015)
Some of these results come from one statement about several compounds together.

Chains of the proteins cited; added tags and fusions are not shown.
UniProt Q05397, whole entry: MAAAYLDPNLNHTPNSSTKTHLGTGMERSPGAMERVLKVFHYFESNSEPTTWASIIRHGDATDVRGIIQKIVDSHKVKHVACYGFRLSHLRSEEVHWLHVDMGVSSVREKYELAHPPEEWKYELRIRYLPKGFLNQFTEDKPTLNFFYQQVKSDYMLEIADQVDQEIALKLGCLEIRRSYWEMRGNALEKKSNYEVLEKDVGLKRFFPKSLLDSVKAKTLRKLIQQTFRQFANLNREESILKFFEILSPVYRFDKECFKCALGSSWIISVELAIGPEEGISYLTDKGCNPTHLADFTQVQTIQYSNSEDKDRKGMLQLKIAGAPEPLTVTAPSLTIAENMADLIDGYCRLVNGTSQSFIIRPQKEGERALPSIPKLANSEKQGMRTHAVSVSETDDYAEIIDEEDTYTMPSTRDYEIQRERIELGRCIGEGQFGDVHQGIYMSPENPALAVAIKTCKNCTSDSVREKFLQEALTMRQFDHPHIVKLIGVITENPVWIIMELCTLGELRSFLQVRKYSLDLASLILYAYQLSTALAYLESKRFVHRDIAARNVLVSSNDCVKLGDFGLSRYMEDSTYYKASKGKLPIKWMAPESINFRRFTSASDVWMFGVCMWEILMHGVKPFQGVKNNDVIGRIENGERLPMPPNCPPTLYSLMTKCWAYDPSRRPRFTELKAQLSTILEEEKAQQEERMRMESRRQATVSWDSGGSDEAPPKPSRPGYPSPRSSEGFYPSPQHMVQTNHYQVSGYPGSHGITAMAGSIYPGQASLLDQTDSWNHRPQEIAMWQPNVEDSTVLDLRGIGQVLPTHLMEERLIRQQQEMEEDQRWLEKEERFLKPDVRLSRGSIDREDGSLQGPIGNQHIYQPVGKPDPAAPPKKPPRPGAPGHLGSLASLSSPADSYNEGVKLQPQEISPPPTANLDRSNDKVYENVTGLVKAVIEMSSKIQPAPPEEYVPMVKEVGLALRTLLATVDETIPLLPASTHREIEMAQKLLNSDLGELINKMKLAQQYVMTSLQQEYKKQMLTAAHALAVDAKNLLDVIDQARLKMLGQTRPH

Biological target: FAK (Homo sapiens, UniProt Q05397)
Conditions: read-out: Mean FAK Biochem Omnia IC50 (50 uM ATP), Omnia Y Peptide 3 substrate

Row | Structure (SMILES) | IC50 [nM]
1 | CCOP(C)(=O)Cc1ccc(Nc2nc(Nc3ccc([C@H]4CC[C@H](O)CC4)c4c3C(=O)N(C)C4)ncc2C(F)(F)F)c(OC)c1 (relative stereo) [Compound 192, Ethyl (4-{[2-{[7-(trans-4-hydroxycyclohexyl)-2-methyl-3-oxo-2,3-dihydro-1H-isoindol-4-yl]amino}-5-(trifluoromethyl)pyrimidin-4-yl]amino}-3-methoxybenzyl)methylphosphinate] | < 1000
2 | CCOP(=O)(Cc1ccc(Nc2nc(Nc3ccc([C@H]4CC[C@H](O)CC4)c4c3C(=O)N(C)C4)ncc2C(F)(F)F)cn1)OCC [Compound 261, Diethyl [(5-{[2-{[7-(trans-4-hydroxycyclohexyl)-2-methyl-3-oxo-2,3-dihydro-1H-isoindol-4-yl]amino}-5-(trifluoromethyl)pyrimidin-4-yl]amino}pyridin-2-yl)methyl]phosphonate] | < 1000
